# Test results published in PMC4974476, “Structural basis for LIN54 recognition of CHR elements in cell cycle-regulated promoters”.
# By UniProt entry, the sequences of proteins in these tests, tags left out.
# UniProt Q6MZP7: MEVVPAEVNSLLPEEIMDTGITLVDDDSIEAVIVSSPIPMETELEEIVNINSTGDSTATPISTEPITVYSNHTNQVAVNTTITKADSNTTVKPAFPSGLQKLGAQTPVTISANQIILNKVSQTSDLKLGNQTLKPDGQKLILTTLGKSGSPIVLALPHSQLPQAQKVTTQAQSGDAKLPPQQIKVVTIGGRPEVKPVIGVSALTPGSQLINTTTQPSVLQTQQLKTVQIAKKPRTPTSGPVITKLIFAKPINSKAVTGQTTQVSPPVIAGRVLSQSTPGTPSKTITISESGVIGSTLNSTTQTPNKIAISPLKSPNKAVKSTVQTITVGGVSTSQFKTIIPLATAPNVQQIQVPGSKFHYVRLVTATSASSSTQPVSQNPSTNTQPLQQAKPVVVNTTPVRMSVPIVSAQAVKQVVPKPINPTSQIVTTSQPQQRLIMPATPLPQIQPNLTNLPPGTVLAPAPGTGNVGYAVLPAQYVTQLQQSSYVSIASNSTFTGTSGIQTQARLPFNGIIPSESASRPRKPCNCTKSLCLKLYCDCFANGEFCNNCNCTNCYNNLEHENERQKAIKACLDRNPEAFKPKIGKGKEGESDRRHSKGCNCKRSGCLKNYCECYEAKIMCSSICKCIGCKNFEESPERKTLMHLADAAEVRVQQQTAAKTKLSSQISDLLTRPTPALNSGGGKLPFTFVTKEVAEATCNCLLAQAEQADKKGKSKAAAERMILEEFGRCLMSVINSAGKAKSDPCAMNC
# UniProt Q96GY3: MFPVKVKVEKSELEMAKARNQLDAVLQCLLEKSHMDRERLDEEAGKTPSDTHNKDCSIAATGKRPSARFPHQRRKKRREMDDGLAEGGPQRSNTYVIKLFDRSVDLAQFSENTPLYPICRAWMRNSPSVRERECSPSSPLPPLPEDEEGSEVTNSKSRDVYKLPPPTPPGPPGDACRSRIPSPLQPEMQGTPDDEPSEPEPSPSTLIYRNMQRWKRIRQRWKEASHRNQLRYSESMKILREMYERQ
# UniProt P10244: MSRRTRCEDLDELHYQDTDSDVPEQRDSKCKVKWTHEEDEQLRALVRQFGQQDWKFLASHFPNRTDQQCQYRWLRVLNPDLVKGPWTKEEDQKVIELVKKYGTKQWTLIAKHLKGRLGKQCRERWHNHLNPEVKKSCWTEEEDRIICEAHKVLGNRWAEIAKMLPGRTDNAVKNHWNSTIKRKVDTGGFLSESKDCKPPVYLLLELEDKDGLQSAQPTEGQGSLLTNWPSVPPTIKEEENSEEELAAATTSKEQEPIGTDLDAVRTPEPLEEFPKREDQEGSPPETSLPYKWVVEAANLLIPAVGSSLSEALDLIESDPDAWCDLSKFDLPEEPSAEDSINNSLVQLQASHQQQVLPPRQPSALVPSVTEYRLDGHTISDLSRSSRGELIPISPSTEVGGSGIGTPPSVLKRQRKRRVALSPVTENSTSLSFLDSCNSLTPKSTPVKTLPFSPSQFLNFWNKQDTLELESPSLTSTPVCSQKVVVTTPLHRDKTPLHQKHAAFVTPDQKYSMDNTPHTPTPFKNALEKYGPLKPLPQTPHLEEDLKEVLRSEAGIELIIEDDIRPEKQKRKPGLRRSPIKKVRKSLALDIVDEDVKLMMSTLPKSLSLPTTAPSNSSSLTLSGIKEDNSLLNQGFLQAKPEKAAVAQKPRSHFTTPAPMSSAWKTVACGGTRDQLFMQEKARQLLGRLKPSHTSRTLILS
# UniProt Q5TKA1: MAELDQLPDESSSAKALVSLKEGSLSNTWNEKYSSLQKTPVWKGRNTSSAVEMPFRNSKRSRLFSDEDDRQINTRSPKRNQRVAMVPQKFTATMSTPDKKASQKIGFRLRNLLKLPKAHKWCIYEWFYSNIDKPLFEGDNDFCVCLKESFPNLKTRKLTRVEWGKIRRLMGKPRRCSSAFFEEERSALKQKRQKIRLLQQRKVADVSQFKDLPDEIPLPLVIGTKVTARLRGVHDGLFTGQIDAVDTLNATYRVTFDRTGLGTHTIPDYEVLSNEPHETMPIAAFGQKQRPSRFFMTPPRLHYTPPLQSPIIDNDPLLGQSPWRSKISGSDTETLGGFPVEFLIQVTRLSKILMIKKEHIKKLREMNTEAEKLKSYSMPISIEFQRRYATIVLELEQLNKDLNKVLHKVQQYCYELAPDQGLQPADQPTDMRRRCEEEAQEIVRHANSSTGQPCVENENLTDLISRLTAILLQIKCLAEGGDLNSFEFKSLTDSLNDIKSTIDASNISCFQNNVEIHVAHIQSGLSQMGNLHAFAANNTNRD
# No constants are given. Whether binding was seen depends on the method and setting. In cells and extracts the contact can be indirect. Some binding calls cover weakened binding; strength is not graded here.
# Biological target: V5-tagged wild-type LIN54 (human) (UniProt Q6MZP7)
# Experiment: co-IP; T98G cells co-transfected with V5-LIN54 (wild type or mutant) and HA-p130; extracts in EBC lysis buffer (50 mM Tris HCl pH 7.4, 150 mM NaCl, 0.5% NP-40); immunoprecipitated with anti-V5 antibody; western blot for LIN9, LIN37, Myb, V5 and HA
row,binding,Substance
1,binds,LIN37 (from UniProt Q96GY3 1-246)
2,binds,B-Myb (Myb) transcription factor (from UniProt P10244 1-700)
3,binds,LIN9 (from UniProt Q5TKA1 1-542)
